Results are given in words; binding and its absence hold for the method and conditions named. Some binding calls cover weakened binding; strength is not graded here.
Legend:
purified Integrin αvβ3 [1] = molecular target: T1, purified Integrin αvβ3 (UniProt P06756 31-992; P05106 27-718, limits assumed); assay: homologous competition: varied unlabeled ALOS-2 against 10 µM FITC-labeled ALOS-2 on wells coated with purified integrin αvβ3
T1 construct: Purified integrin coated on 96-well plates; also called integrin alpha-v-beta3; αVβ3 integrin

Amino acid sequences for entries named in this document (tags omitted). A change or cut given only in a name is not applied to a line headed by its entry.
UniProt P06756: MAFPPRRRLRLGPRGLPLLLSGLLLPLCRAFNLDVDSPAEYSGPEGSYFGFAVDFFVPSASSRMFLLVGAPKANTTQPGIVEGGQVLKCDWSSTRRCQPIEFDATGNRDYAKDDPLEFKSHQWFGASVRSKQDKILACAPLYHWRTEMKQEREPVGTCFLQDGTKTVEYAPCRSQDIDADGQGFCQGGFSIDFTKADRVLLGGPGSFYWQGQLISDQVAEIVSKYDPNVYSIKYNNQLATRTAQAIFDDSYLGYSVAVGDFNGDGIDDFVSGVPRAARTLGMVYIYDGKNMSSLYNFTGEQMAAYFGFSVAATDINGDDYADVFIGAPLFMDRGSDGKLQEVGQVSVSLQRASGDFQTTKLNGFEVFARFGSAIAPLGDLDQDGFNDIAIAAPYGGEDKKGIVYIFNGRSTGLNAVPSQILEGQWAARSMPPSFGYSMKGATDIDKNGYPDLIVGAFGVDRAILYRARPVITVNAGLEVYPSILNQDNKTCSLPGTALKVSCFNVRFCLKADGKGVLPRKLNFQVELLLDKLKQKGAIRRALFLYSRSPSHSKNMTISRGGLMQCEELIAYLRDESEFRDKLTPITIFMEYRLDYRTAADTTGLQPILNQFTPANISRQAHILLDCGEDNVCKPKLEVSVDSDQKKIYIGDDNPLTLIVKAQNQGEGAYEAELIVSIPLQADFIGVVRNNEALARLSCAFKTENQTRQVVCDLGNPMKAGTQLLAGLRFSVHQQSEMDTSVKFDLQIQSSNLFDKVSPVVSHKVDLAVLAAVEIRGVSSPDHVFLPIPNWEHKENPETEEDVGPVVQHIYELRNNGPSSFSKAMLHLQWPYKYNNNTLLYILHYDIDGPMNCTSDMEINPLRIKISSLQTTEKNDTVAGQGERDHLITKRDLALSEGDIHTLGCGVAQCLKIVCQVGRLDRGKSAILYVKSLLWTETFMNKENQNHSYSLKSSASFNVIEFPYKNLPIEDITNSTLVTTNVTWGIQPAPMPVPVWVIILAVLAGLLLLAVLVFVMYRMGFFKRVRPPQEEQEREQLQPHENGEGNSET

purified Integrin αvβ3 [2] = molecular target: T1, purified Integrin αvβ3; assay: homologous competition: varied unlabeled ALOS-3 against 10 µM FITC-labeled ALOS-3 on wells coated with purified integrin αvβ3
purified Integrin αvβ3 [3] = molecular target: T1, purified Integrin αvβ3; assay: homologous competition: varied unlabeled ALOS-1 against 10 µM FITC-labeled ALOS-1 on wells coated with purified integrin αvβ3

CPPSNHLLC [ALOS-2]
binding (purified Integrin αvβ3 [1]): binds

CAPSPSRLC [ALOS-3]
binding (purified Integrin αvβ3 [2]): binds

CNLSSSWIC [ALOS-1]
binding (purified Integrin αvβ3 [3]): binds

— patent US20190194253A1 (ARIEL UNIVERSITY RESEARCH AND DEVELOPMENT, published 2019)
